These are yes or no findings as the source states them, for the method shown. Some results given as binding are weak or reduced against the parent protein; the word gives no strength. Sequences can lack the tags named with a protein.

The target in the experiment is N-cadherin endogenously expressed on PC12 rat pheochromocytoma cells (rat (endogenous in PC12)) (UniProt Q9Z1Y3). As to the kind of experiment: magnetic tweezer bead adhesion assay; N-cad-Fc-coated superparamagnetic beads settled about 3 min on PC12 cells in cell culture medium (2 mM Ca); electromagnet at 200 mA removes beads not tightly attached; no zinc added; only the binder purified.

B1: N-cadherin-Fc fusion protein (mouse N-cadherin extracellular domain fused to Fc-portion of human IgG1) (Fc fusion, UniProt P15116 160-724)
chain: DWVIPPINLPENSRGPFPQELVRIRSDRDKNLSLRYSVTGPGADQPPTGIFIINPISGQLSVTKPLDRELIARFHLRAHAVDINGNQVENPIDIVINVIDMNDNRPEFLHQVWNGSVPEGSKPGTYVMTVTAIDADDPNALNGMLRYRILSQAPSTPSPNMFTINNETGDIITVAAGLDREKVQQYTLIIQATDMEGNPTYGLSNTATAVITVTDVNDNPPEFTAMTFYGEVPENRVDVIVANLTVTDKDQPHTPAWNAAYRISGGDPTGRFAILTDPNSNDGLVTVVKPIDFETNRMFVLTVAAENQVPLAKGIQHPPQSTATVSVTVIDVNENPYFAPNPKIIRQEEGLHAGTMLTTLTAQDPDRYMQQNIRYTKLSDPANWLKIDPVNGQITTIAVLDRESPNVKNNIYNATFLASDNGIPPMSGTGTLQIYLLDINDNAPQVLPQEAETCETPEPNSINITALDYDIDPNAGPFAFDLPLSPVTIKRNWTINRLNGDFAQLNLKIKFLEAGIYEVPIIITDSGNPPKSNISILRVKVCQCDSNGDCTDVDRIVGAGLGTGA
For the molecule B1, the binding result is recorded as “binds”.
